## Results of single-concentration screens

The filed quantity is “Percent Effect” (%). The record does not define 0% and 100%; most values in the screen are far below 50% and negative numbers occur (in some assays of this library far below -100). Compounds were drawn at random from those tested, without regard to their results. Two or more numbers in one place are separate tests of the same structure; such repeats can differ widely. A dash means the value is not listed here; it may have been measured.

T. brucei: 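Whole-parasite assay of Trypanosoma brucei over 72 hours; the read-out is not stated. Compounds at 30 µM. Higher reads as stronger inhibition (inferred: compounds with an IC50 in retests scored well above the rest). Values scatter widely below zero; nearly all retest evidence comes from the higher of the two concentrations used. About 64,000 compounds were tested under these conditions; 1.5% (about 940) showed 50% or more at least once.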
Leishmania in macrophages: 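Cell assay of Leishmania donovani living inside macrophages; the read-out is not stated. Tested at 30 µM. Direction is inferred from retests: higher values go with stronger inhibition. Of about 69,000 compounds tested this way, about 1,000 (1.5%) reached 50% or more in at least one test.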

compound	T. brucei	Leishmania in macrophages
[H][C@]12CC[C@]([H])(CN(C(=O)c3nnc4n3CCCCC4)C1)N(C)C2=O	-3.953	9.799
Cc1ccc(CN2CCCC3(CCCC(=O)N3C)C2)s1.O=C(O)C(F)(F)F (stereo not shown)	-13.44	30.81
CNC(=O)C1(CCCc2ccncc2)CCCCN1.Cl (stereo not shown)	-5.403	23.16
O=C(O)C(F)(F)F.[H][C@]12C[C@@H](CN(C)C)N(C(C)=O)[C@@]1([H])CCN(C(=O)c1ccno1)C2	5.246	10.01
CNC(=O)C(NC(=O)c1ccn(C)c(=O)c1)c1ccccc1 (stereo not shown)	-24.29	-21.29
[H][C@@]12C=C[C@@]([H])(C1)[C@H](C(=O)N1CCN(c3cc(C)nc(C)c3)CC1)C2	-21.89	23.66
COc1cccc(C(=O)Nc2n[nH]c(C3CCCO3)n2)c1 (stereo not shown)	4.306	11.62
Cc1noc(C(C)N2CCN(CC(=O)N3CCCC3)CC2)n1 (stereo not shown)	6.648	10.6
[H][C@@]12CCCCN(C)[C@]1([H])[C@@H](c1ccccc1)CCN2C(=O)c1ccncc1	2.626	5.721
Cc1ccnc(NC(=O)c2cc(C)oc2C)c1	-107.8	-16.64
CC1CN(CC(=O)NCCc2ccccc2)CCN1c1nccs1 (stereo not shown)	-44.35	4.508
CNC(=O)c1cccc(CN2CCN(C3=NCC(C)(C)S3)CC2)c1	-12.65	18.82
CC(C)N(CCS(C)(=O)=O)Cc1csc(-c2ccccc2F)n1	-20.81	-9.937
Cc1cccc2c(=O)c(C(=O)N3CCCC4(CN(C)C(=O)O4)C3)c[nH]c12 (stereo not shown)	-31.36	-7.827
CC(=O)Nc1ccc(CNc2cccc(OCCF)c2)cc1	5.354	18.52
COCCN(CCOC)C(=O)c1cnn(C)c1-n1c(C)ccc1C	4.143	24.68
CCCN(CC1CC1)C(=O)CN1CCCC1c1cnn(C)c1 (stereo not shown)	-37.44	-6.986
COCc1cc(CNC(=O)c2c(O)cccc2O)n[nH]1	14.03	31.81
Cc1cnn(CCC(=O)N2CCN(c3nccs3)CC2)c1	-	20.77
CN(Cc1ccco1)Cc1ccccc1CNC(=O)c1cnc[nH]1	-36.84	22.37
Fc1cccc(CNCC2Cn3nncc3CO2)c1 (stereo not shown)	-5.053	12.68
COc1ccc(-c2nnc(CNCCn3cccn3)o2)cc1	-	12.53
CC(O)c1cn(CC2CCN(C(=O)CN(C)C(C)C)CC2)nn1 (stereo not shown)	-	15.18
CN(Cc1cscn1)C1CCCN(c2cccnn2)C1 (stereo not shown)	-32.08	-6.813
N#Cc1ccc(CNc2cccc(C(=O)N3CCOCC3)c2)cc1	-14.5	-2.601
CC(=O)Nc1ccc(Cl)c(C(=O)N(C)Cc2nc(C)c[nH]2)c1	-9.679	3.963
CN1CC(Nc2nc3c(cnn3C(C)(C)C)c(=O)[nH]2)CCC1=O (stereo not shown)	-21.89	7.733
COc1cccc(C2CC(=O)Nc3nc(N)sc32)c1OC (stereo not shown)	-33.82	0.5409
Cc1csc2c(=O)n(CCN3CCNCC3)cnc12	-96.95	-44.19
COc1ccc(CNCc2nnc3n2CC(C(F)(F)F)CC3)cc1 (stereo not shown)	-25.87	-12.23 & -25.79
Cc1ccc([C@@H]2CN(S(=O)(=O)N(C)C)C[C@H]2N(C)C)cc1	5.066	-1.616
CC(C)Cc1noc(CN2CCN(S(C)(=O)=O)CC2)n1	-	7.951
CC(C)N1CCN(C)CC1c1nnc2ccc(C(=O)N3CCCC3)cn12 (stereo not shown)	-8.222	34.64
COC1CCN(C(=O)c2c(Cl)c3ccccc3n2C)CC1	-5.487	41.76
CC(C)(C)c1nc(CC(=O)N2CCCC(n3cncn3)C2)cs1 (stereo not shown)	-6.618	28.44
c1ccc(-c2cnc(CN3CCCC3Cn3cncn3)o2)cc1 (stereo not shown)	-48.01	5.603
CSCC[C@H](NC(=O)N1CCC(Cc2ccccc2)CC1)C(=O)O	-41.32	-32.27
CC(C)n1ccnc1CN1CCOC(C)(C(=O)N2CCOCC2)C1 (stereo not shown)	-14.98	12.3 & 20.85
CC(C)C1CN(C(=O)Nc2cnn(CC(F)F)c2)CCO1 (stereo not shown)	-53.62	19.3
COCC(NC(=O)NCc1cccc(Cl)c1)c1ccco1 (stereo not shown)	-28.18	11.34

Source: ChEMBL document CHEMBL3988442, “University of Dundee, Small-Polar-MMV Screening Library” (2021).